Results are given in words; binding and its absence hold for the method and conditions named. Sequences can lack the tags named with a protein.
How the values were obtained:
[1] = target: NiuE cytoplasmic NTP-binding protein fused to the T18 fragment (pUT18) (Helicobacter pylori (strain B128)); test: two-hybrid; Bacterial Adenylate Cyclase Two-Hybrid (BACTH) in E. coli BTH101; SlyD fused to T25, Niu proteins fused to T18 (pUT18); LB with IPTG 10^-3 M overnight at 30°C; ß-galactosidase activity in Miller units
[2] = target: NiuB1 periplasmic nickel-binding protein fused to the T18 fragment (pUT18) (Helicobacter pylori (strain B128)); test: as above

B1: SlyD wild type fused to the T25 fragment of Bordetella pertussis adenylate cyclase (pNKT25) (protein, UniProt O25748 1-185)
chain: MQNHDLESIKQAALIEYEVREQGSSIVLDSNISKEPLEFIIGTNQIIAGLEKAVLKAQIGEWEEVVIAPEEAYGVYESSYLQEVPRDQFEGIELEKGMSVFGQTEDNQTIQAIIKDFSATHVMVDYNHPLAGKTLAFRFKVLGFREVSEEEILASHHGGGTGCCGGHGGHGGKKGGGCGCSCSHG
binding [1]: no binding | binding [2]: no binding
